Laboratory results as given in patent US4264492A, “Enkephalin-like compounds in bovine adrenal medulla” (Hoffmann-La Roche Inc., priority 1979, dated 1981).
Not every detail of the peptide structures is certain; ends, links or a residue may be inferred. At least one compound was matched to its structure with a doubt left. No end group written: not given here.

Test system: mice
Assay: Analgesic assay, tail flick response after intracerebral ventrical injection
Type: in vivo
Conditions: individual mouse

Molecule | Response (Dose 20ng, Volume 10nl) | Response (6 n moles of the synthetic peptide, Volume 5nl) | Response (6 n moles of the synthetic peptide, Volume 10nl)
CC(=O)OCC[N+](C)(C)C [Acetylcholine] | Pos. | – | –
YGGFMRF [Arg^6 -Phe^7 met-enkephalin, Tyr-Gly-Gly-Phe-Met-Arg-Phe] | – | Pos. and Neg. | Neg.
